Source: PubChem BioAssay AID1671190 (National Center for Advancing Translational Sciences (NCATS), 2021)
Among all 580,000 compounds or so, about 6,100 (1.1%) were called active. The inconclusive results got no clear call from the source; some entries with a clear call stand among them for comparison. Calls come from the whole dose curve; as a rule, active = well fitted inhibition curve with a large enough effect; inconclusive = small, poorly fitted or top-dose-only effect, or another doubt; inactive = no such curve, though single readings can be large or run the other way. Where the call is inconclusive, the potency comes from a doubtful curve fit.

Chains of the proteins cited; added tags and fusions are not shown. Lines headed by an entry give the natural chain unless they say otherwise; changes in a name come on top.
UniProt P18054: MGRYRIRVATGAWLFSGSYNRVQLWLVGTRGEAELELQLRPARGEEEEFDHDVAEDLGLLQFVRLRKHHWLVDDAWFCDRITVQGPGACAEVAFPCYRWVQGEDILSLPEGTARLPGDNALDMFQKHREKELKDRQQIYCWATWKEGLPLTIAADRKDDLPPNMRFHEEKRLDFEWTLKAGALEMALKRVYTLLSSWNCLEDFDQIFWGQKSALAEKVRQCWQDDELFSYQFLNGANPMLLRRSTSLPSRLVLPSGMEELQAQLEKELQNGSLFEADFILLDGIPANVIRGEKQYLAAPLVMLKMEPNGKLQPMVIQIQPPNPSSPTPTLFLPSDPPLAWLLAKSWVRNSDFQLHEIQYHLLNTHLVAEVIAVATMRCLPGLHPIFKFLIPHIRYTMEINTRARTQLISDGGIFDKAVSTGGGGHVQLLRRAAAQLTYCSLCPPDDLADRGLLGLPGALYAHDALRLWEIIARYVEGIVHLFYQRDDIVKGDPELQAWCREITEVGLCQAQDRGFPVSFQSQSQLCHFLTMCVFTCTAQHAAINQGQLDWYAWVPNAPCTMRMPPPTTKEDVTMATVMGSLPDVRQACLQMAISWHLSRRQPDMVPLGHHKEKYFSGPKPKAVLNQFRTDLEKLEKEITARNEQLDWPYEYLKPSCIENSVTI

The molecules below were run against Polyunsaturated fatty acid lipoxygenase ALOX12 (Homo sapiens) (UniProt P18054) (assay: Primary qHTS assay for inhibitors of human arachidonate 12S-lipoxygenase (ALOX12): Round 2). Details: purified 12hLO, xylenol orange hydroperoxide absorbance; activity change, negative = inhibition: at 108 µM (top of the series) unless noted.
Summary of the method: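 Hydroperoxide product was detected by ferrous iron/xylenol orange as the 573 to 405 nm absorbance ratio. Arachidonic acid at 40 uM (final) was turned over for 30 min at room temperature by 150 nM human 12hLO, pH 7.0 Hepes buffer, after 15 min compound preincubation.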
% is set by controls: 0 for no effect and ±100 for the full control effect; potency is the fitted concentration of half-maximal effect.

How did the Potency turn out when `CSc1nc2ccc(NC(=O)c3c(F)cccc3F)cc2s1` was run?
Its Potency is inconclusive: 112 µM [inhibitor, single point].

How did the Potency turn out when `Cc1cc(NS(=O)(=O)c2c(C)c(C)cc(C)c2C)no1` was run?
The Potency was inconclusive: 89.1 µM [inhibitor, single point].

With `O=C1c2ccccc2NC(c2cc3ccccc3[nH]c2=O)N1C1CC1` (centres undefined) as the molecule, how does the Potency read?
The Potency was inconclusive: 25.1 µM [inhibitor, partial curve, poor fit].

How did the Potency turn out when `Clc1ccc(OCCCNCc2ccccc2)c(Br)c1` was run?
The Potency was inconclusive: 25.1 µM [inhibitor, partial curve, poor fit].

`O=C(O)[C@@H](c1ccc(OCc2ccc3ccccc3n2)cc1)C1CCCC1` was tested. Which Potency did it give?
Its Potency is inconclusive: 15.3 µM [inhibitor, partial curve].

For `Cc1cc(C)n(-c2ccc(NC(=O)C3CCCCN3C(=O)c3occc3C)cc2)n1` (centres undefined), which “activity change, negative = inhibition” value is on record?
Its value is inactive: 0%.

With `CC(=O)C1CCCN(C(=O)c2ccc3nc(Cc4cccc(Cl)c4)oc3c2)C1` (centres undefined) as the molecule, how does the “activity change, negative = inhibition” value read?
The value was inactive: 4.63%.

For `CCOC(=O)C1=CCN(S(=O)(=O)c2ccc(F)cc2)C1c1cccc(Cl)c1` (centres undefined), which “activity change, negative = inhibition” value is on record?
Its value is inactive: -17.6%.

With `COc1cc(/C=C/C(=O)c2cc3ccccc3oc2=O)cc(OC)c1OC` as the molecule, how does the Potency read?
The Potency was inconclusive: 39.8 µM [inhibitor, partial curve, poor fit].

With `Cc1ccc(CNc2ncnc3cc(Cl)ccc23)o1` as the molecule, how does the Potency read?
The Potency was inconclusive: 44.7 µM [inhibitor, partial curve, poor fit].

For `COc1ccc(-c2nnc(SCC(=O)Nc3ncc(C(F)(F)F)cc3Cl)n2CC(C)C)cc1`, which “activity change, negative = inhibition” value is on record?
Its value is inactive: -20%.

`CCC1(c2ccccc2)NC(=O)N(NC(=O)c2nn(C)c(=O)c3ccccc23)C1=O` (centres undefined) was tested. Which Potency did it give?
Its Potency is inconclusive: 79.4 µM [inhibitor, partial curve, poor fit].

Which “activity change, negative = inhibition” value does the source give for `N#Cc1cccc(CSc2nccc(C(F)(F)F)n2)c1` here?
The value was inactive: -0.774%.

With `Cc1nnc(C)n1/N=C/c1cc(Br)cc(Br)c1O` as the molecule, how does the Potency read?
Its Potency is inconclusive: 15.8 µM [inhibitor, partial curve, poor fit].

With `COc1cc(NC(=O)c2ncn(-c3ccccc3)n2)cc(OC)c1` as the molecule, how does the “activity change, negative = inhibition” value read?
Its value is inactive: -16.2%.

Which Potency does the source give for `CC(C)C(C(=O)N1CCN(Cc2ccccc2)CC1)c1ccccc1` (centres undefined) here?
The Potency was inconclusive: 25.1 µM [inhibitor, partial curve, poor fit].

With `COc1ccc(OCC(=O)NCc2ccco2)c(C(=O)O)c1` as the molecule, how does the Potency read?
The Potency was inconclusive: 28.2 µM [inhibitor, partial curve, poor fit].

Which Potency does the source give for `O=C(NCCc1cccs1)c1ccc(Cn2ccn3nc4c(c3c2=O)CCCC4)cc1` here?
Its Potency is inconclusive: 22.4 µM [inhibitor, full curve].

With `COc1ccc(-c2nc3cnc(N4CCNCC4)nc3n(-c3ccc(OC)cc3)c2=O)cc1` as the molecule, how does the Potency read?
The Potency was inconclusive: 112 µM [inhibitor, partial curve, poor fit].
